{"source": "PubChem BioAssay AID2417", "about": "(National Center for Advancing Translational Sciences (NCATS), 2010)", "note": "About 4,300 (3.1%) of roughly 140,000 compounds were called active. Inconclusive means that the source gave no clear call. Such entries were picked first, then a sample of the others.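 The calls were made as follows: active = readout at or below -70, meaning at least 70% loss of cells showing the perinucleolar compartment, a nuclear body marking cancer cells; inconclusive = readout between -30 and a set limit; inactive = the rest.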"}
{"assay": "High Content Assay for Compounds that inhibit the Assembly of the Perinucleolar Compartment;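 also: plate controls were DMSO wells for no effect and camptothecin positive control wells for full effect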", "conditions": "PC3M PTB-GFP, PNC prevalence imaging, 16 h; at 10 µM; active compounds read low", "outline": "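Compounds are pinned in duplicate onto adhered PC3M cells stably expressing GFP-tagged PTB and incubated 16 h at 37 C. Cells are then fixed, nuclei stained with Hoechst, and PNC-positive cells counted.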"}
{"smiles": "COc1ccccc1Nc1ncnc2c1cnn2-c1cccc(C)c1", "activity change (PNC), negative = inhibition": "inactive: -26.3%"}
{"smiles": "COCCNc1c2c(nc3c(-c4ccccc4)c(C)nn13)CCCC2", "activity change (PNC), negative = inhibition": "inactive: 79.3%"}
{"smiles": "O=C(O)CC(Cc1ccc(Cl)cc1)C(=O)NCc1ccccc1", "note": "(stereo unspecified)", "activity change (PNC), negative = inhibition": "inconclusive: -43.5%"}
{"smiles": "CC1CCCCN1C(=O)c1cc(F)c(F)cc1Cl", "note": "(stereo unspecified)", "activity change (PNC), negative = inhibition": "inconclusive: -70.1%"}
{"smiles": "CC12CCC(C(=O)NCc3ccco3)(OC1=O)C2(C)C", "note": "(stereo unspecified)", "activity change (PNC), negative = inhibition": "inconclusive: -44.3%"}
{"smiles": "CN1Cc2cc(C(=O)c3cc(Cl)cc(CSc4ncccn4)c3O)cnc2NC1=O", "activity change (PNC), negative = inhibition": "inconclusive: -53.3%"}
{"smiles": "CC1CCN(c2ccc([N+](=O)[O-])cn2)CC1", "activity change (PNC), negative = inhibition": "inconclusive: -35.8%"}
{"smiles": "O=[N+]([O-])c1cc2c(cc1/C=N/n1c(-c3ccccc3)n[nH]c1=S)OCO2", "activity change (PNC), negative = inhibition": "inconclusive: -54.3%"}
{"smiles": "O=S(=O)(NCc1cn2ccsc2n1)c1cccs1", "activity change (PNC), negative = inhibition": "inactive: -14.9%"}
{"smiles": "Cc1nc(NC(CC(C)C)C(=O)O)c2nc(C)oc2n1", "note": "(stereo unspecified)", "activity change (PNC), negative = inhibition": "inconclusive: -46.2%"}
{"smiles": "CC1CCCCN1C(=O)Nc1cccc(Cl)c1", "note": "(stereo unspecified)", "activity change (PNC), negative = inhibition": "inconclusive: -34.2%"}
{"smiles": "NC(=O)c1sc2nc3c(c(-c4ccccc4)c2c1N)CCC3", "activity change (PNC), negative = inhibition": "active: -100%"}
{"smiles": "CNc1nc(SC)nc(N(C#N)CC(=O)OC)n1", "activity change (PNC), negative = inhibition": "active: -100%"}
{"smiles": "COc1cc(NC(C)C(=O)N2CC(C)OC(C)C2)cc(OC)c1", "note": "(stereo unspecified)", "activity change (PNC), negative = inhibition": "inconclusive: -43.1%"}
{"smiles": "CC(C)C1C(C#N)=C(N)SC(N)=C1C#N", "activity change (PNC), negative = inhibition": "inconclusive: -71.6%"}
{"smiles": "C=CCNC(=O)Nc1ccc(Cl)cn1", "activity change (PNC), negative = inhibition": "inconclusive: -35.2%"}
{"smiles": "COc1ccc(OCC(=O)c2c(O)c3ccccc3oc2=O)cc1", "activity change (PNC), negative = inhibition": "inactive: -6.26%"}
{"smiles": "COc1ccc(CCn2c(SCC(=O)Nc3cc(C)on3)nc3ccccc3c2=O)cc1OC", "activity change (PNC), negative = inhibition": "inactive: 1.77%"}
{"smiles": "CC(C)CNC(=O)C1CC(=O)OC12CCCCC2", "note": "(stereo unspecified)", "activity change (PNC), negative = inhibition": "inconclusive: -33.1%"}
{"smiles": "CCOc1ccccc1/C=c1\\sc2nc(-c3ccco3)nn2c1=O", "activity change (PNC), negative = inhibition": "inconclusive: -70.5%"}
{"smiles": "CCCCCCCC(=O)NN=C1CCN(Cc2ccccc2)CC1", "activity change (PNC), negative = inhibition": "inconclusive: -35.5%"}
{"smiles": "CC1Cc2ccccc2N1C(=O)CNCCCN(C)C", "note": "(stereo unspecified)", "activity change (PNC), negative = inhibition": "inconclusive: -50.2%"}
{"smiles": "Cc1cccc(N2C(=O)CC(N(O)c3ccccc3)C2=O)c1", "note": "(stereo unspecified)", "activity change (PNC), negative = inhibition": "inactive: -9.78%"}
{"smiles": "Cc1ccccc1Cn1cc(S(=O)(=O)CC(=O)Nc2nccs2)c2ccccc21", "activity change (PNC), negative = inhibition": "inconclusive: -60%"}
{"smiles": "CCN(CC)S(=O)(=O)c1ccc(C)c(NC(=O)COC(=O)CNC(=O)c2ccc(C(C)(C)C)cc2)c1", "activity change (PNC), negative = inhibition": "inconclusive: -31%"}
{"smiles": "Cn1cc(Cl)c(C(=O)OCC(=O)Nc2ccccc2)n1", "activity change (PNC), negative = inhibition": "inconclusive: -34.8%"}
{"smiles": "COc1cc(CNc2ccc(N3CCOCC3)c(C(=O)O)c2)ccc1OCC(N)=O", "activity change (PNC), negative = inhibition": "inconclusive: -66.6%"}
{"smiles": "CCOC(=O)C1=C(C)N=C2SC(C)C(=O)N2C1c1ccc(OC(C)=O)c(OC)c1", "note": "(stereo unspecified)", "activity change (PNC), negative = inhibition": "active: -100%"}
{"smiles": "COc1ccc(N=C(C)C2=C(O)COC2=O)cc1", "activity change (PNC), negative = inhibition": "inconclusive: -74.2%"}
{"smiles": "Cc1ccc(NC(=O)Cc2ncc(C(F)(F)F)cc2Cl)cc1Cl", "activity change (PNC), negative = inhibition": "inactive: 26.7%"}
{"smiles": "Cn1nnc2cc(C(=O)NC(C)(C)C)ccc21", "activity change (PNC), negative = inhibition": "inactive: 14.5%"}
{"smiles": "c1ccc2sc(Sc3ncnc4sccc34)nc2c1", "activity change (PNC), negative = inhibition": "inconclusive: -30.1%"}
{"smiles": "O=S(=O)(c1ccc(N2CC=C(c3ccccc3)CC2)nc1)N1CCCC1", "activity change (PNC), negative = inhibition": "inconclusive: -43.5%"}
{"smiles": "CCOC(=O)c1nnc(-c2ccc(C)cc2)nc1Sc1ccc(Cl)cc1", "activity change (PNC), negative = inhibition": "inconclusive: -43.4%"}
{"smiles": "Cc1cc2ccc(C)c(C)c2nc1SCC#N", "activity change (PNC), negative = inhibition": "inconclusive: -61.3%"}
{"smiles": "CCOC(=O)c1[nH]c(C)c(C(=O)NCc2ccc(C)cc2)c1C", "activity change (PNC), negative = inhibition": "inconclusive: -33.2%"}
{"smiles": "Cc1ccc(-c2nnc(Nc3ccc(C(N)=O)cc3)c3ccccc23)cc1S(=O)(=O)NCC1CCCO1", "note": "(stereo unspecified)", "activity change (PNC), negative = inhibition": "inconclusive: -32.5%"}
{"smiles": "COCCN(C(=S)Nc1ccc(OC)cc1)C(C)c1cccs1", "note": "(stereo unspecified)", "activity change (PNC), negative = inhibition": "inconclusive: -32%"}
{"smiles": "C=C1CSc2nc3ccccc3c(=O)n21", "activity change (PNC), negative = inhibition": "inconclusive: -57.1%"}
{"smiles": "COc1cccc(-n2nc(-c3ccnn3-c3ccc(C)cc3)c(=O)n(C)c2=O)c1", "activity change (PNC), negative = inhibition": "inconclusive: -75.5%"}
{"smiles": "CCCCc1ccc(NC(=S)Nc2ccc(Cl)c(S(=O)(=O)N(C)C)c2)cc1", "activity change (PNC), negative = inhibition": "active: -119%"}
{"smiles": "Cc1nc(Cl)c2c(n1)N(CC(N)=O)C(=O)CO2", "activity change (PNC), negative = inhibition": "active: -109%"}
{"smiles": "O=C(CSc1nnc2n1CCCN2)c1ccc(Cl)cc1", "activity change (PNC), negative = inhibition": "inactive: 30.3%"}
{"smiles": "CCN(CC)C(=O)C1CCCN(Cc2ccc3c(c2)OCO3)C1", "note": "(stereo unspecified)", "activity change (PNC), negative = inhibition": "inactive: -7.97%"}
{"smiles": "c1ccc2[nH]c(SN3CCOCC3)nc2c1", "activity change (PNC), negative = inhibition": "inactive: 6.25%"}
{"smiles": "Cc1ccc(C(=O)/C=C/c2ccc(F)cc2)o1", "activity change (PNC), negative = inhibition": "inactive: 5.49%"}
{"smiles": "COc1cc(OC)cc(C(=O)Nc2c(F)cccc2F)c1", "activity change (PNC), negative = inhibition": "active: -119%"}
{"smiles": "CN(c1ccccc1)S(=O)(=O)c1cccc(C(=O)Nc2ccc3c(c2)CCC3)c1", "activity change (PNC), negative = inhibition": "inconclusive: -71.7%"}
{"smiles": "CN(C)S(=O)(=O)c1ccc(C(=O)Nc2nnc(SCc3cccc4ccccc34)s2)cc1", "activity change (PNC), negative = inhibition": "active: -134%"}
{"smiles": "C[C@H]1CC[C@H]2C(=O)N[C@H](Cc3ccccc3)C(=O)N2[C@@H]1c1ccccc1", "activity change (PNC), negative = inhibition": "inconclusive: -60.4%"}
{"smiles": "CCOC(=O)C1(P(=O)(c2ccccc2)c2ccccc2)CCC1", "activity change (PNC), negative = inhibition": "inactive: 21%"}
{"smiles": "Cc1nnc(NC2(C(F)(F)F)C(=O)Nc3c2c(=O)n(C)c(=O)n3C)s1", "note": "(stereo unspecified)", "activity change (PNC), negative = inhibition": "inconclusive: -49.6%"}
{"smiles": "NC(=O)c1ccc(-c2ncc(-c3ccccc3)o2)cc1", "activity change (PNC), negative = inhibition": "inconclusive: -65.3%"}
{"smiles": "Cc1ccc(S(=O)(=O)N2CCN(Cc3cc(C(C)C)ccc3O)CC2)cc1", "activity change (PNC), negative = inhibition": "inconclusive: -39.7%"}
{"smiles": "COc1ccc(N2C(=O)CSC2c2cccs2)cc1", "note": "(stereo unspecified)", "activity change (PNC), negative = inhibition": "active: -114%"}
{"smiles": "CN(CC(=O)N1CCN(c2cccc(Cl)c2)CC1)S(=O)(=O)c1cccs1", "activity change (PNC), negative = inhibition": "inconclusive: -51%"}
{"smiles": "Cc1ccc(CSc2nnc(-c3ccco3)n2N)cc1", "activity change (PNC), negative = inhibition": "inactive: -7.41%"}
{"smiles": "CCOC(=O)N1CCN(CC(O)COC2CC(C)CCC2C(C)C)CC1", "note": "(stereo unspecified)", "activity change (PNC), negative = inhibition": "inconclusive: -63.9%"}
{"smiles": "Cn1cccc1C(=O)C(=O)Nc1cc(Cl)cc(Cl)c1", "activity change (PNC), negative = inhibition": "inconclusive: -55.3%"}
{"smiles": "O=C1CC(Nc2ccc(N3CCOCC3)cc2)C(=O)N1Cc1ccccc1", "note": "(stereo unspecified)", "activity change (PNC), negative = inhibition": "active: -119%"}
{"smiles": "Cc1cc(C)nc(NS(=O)(=O)c2ccc(N3C(=O)C4C5C=CC(C5)C4C3=O)cc2)n1", "note": "(stereo unspecified)", "activity change (PNC), negative = inhibition": "inactive: -27.8%"}
